Data from PubChem BioAssay AID330 (DTP/NCI, 2004).
The list does not hold the whole screen: it gathers tests that were run many times, whatever their T/C, doses with no T/C, and many T/C values between a quarter and a half above the control. Further doses and runs are listed elsewhere. T/C gives the treated animals as a percentage of the vehicle group. Some entries give survivors of the animals treated and no T/C: the source holds a T/C of zero for them, seemingly a mark for toxic or unscored doses. Some doses without a T/C left all or most animals alive at the check, yet need not have been tolerated: the source hardly ever lists a survival T/C far under the control, and the zero likely stands for such cases as well. Counts of survivors are from the toxicity check (mostly the fifth day) where no day follows; animals may have died later. Schedules are NCI's codes, taken here to give the interval after Q, in days (D) or hours (H), and the number of doses after X. For survival time, this PubChem deposit counts one and a half times the control or more as active, and values a quarter to a half above the control carry no call in these data; other NCI protocols may use other cut-offs. Some entries were tested several times; their values stand side by side, smallest first. Additions like (4×) stand for listed records that agree.

Tested on: P388 leukemia ip, CD2F1 mice, survival T/C
Assay: NCI In Vivo Anticancer Drug Screen. Data for tumor model P388 Leukemia (intraperitoneal) in CD2F1 (CDF1) mice
Settings: T/C endpoint: median survival time, higher T/C = longer survival
[1] = dose: 25.0 mg/kg/injection, schedule: Q01DX005 (ip), vehicle: saline with Tween-80
[2] = dose: 50.0 mg/kg/injection, schedule: Q01DX005 (ip), vehicle: saline with Tween-80
[3] = dose: 6.0 mg/kg/injection, schedule: Q01DX005 (ip), vehicle: saline with Tween-80
[4] = dose: 8.0 mg/kg/injection, schedule: Q04DX003 (ip), vehicle: other

CC(C)=CC[P+](CC[P+](CC=C(C)C)(c1ccccc1)c1ccccc1)(c1ccccc1)c1ccccc1
survivor count [1]: 0 of 5 | survivor count [2]: 5 of 5 | survivor count (dose: 100.0 mg/kg/injection, schedule: Q01DX005 (ip), vehicle: saline with Tween-80): 5 of 5 | survivor count (dose: 200.0 mg/kg/injection, schedule: Q01DX005 (ip), vehicle: saline with Tween-80): 5 of 5

COc1ccc(/C=N\NC(=O)C(=O)N/N=C\c2ccc(OC)cc2)cc1
survivor count (dose: 50.0 mg/kg/injection, schedule: Q01DX009 (ip), vehicle: distilled water + alcohol): 6 of 6

CCCN(CCC)c1ncnc2[nH]ncc12
survivor count (dose: 200.0 mg/kg/injection, schedule: Q01DX005 (ip), vehicle: saline): 4 of 5

COC(=O)C1(Cc2ccccc2)CCCC1(C#N)O[Si](C)(C)C (stereo not given)
survivor count (dose: 100.0 mg/kg/injection, schedule: Q04DX003 (ip), vehicle: saline with Tween-80): 3 of 6 | survivor count (dose: 200.0 mg/kg/injection, schedule: Q04DX003 (ip), vehicle: saline with Tween-80): 0 of 6 | survivor count (dose: 400.0 mg/kg/injection, schedule: Q04DX003 (ip), vehicle: saline with Tween-80): 0 of 6

CS(=O)CC(C)(O)C1OC(=O)C=C2C3(C)CC4OC4C4(C)C(=O)OC(C34)C3OC231 (stereo not given)
T/C (dose: 5.0 mg/kg/injection, schedule: Q01DX009 (ip), vehicle: DMSO): 128 % of control | T/C (dose: 10.0 mg/kg/injection, schedule: Q01DX009 (ip), vehicle: DMSO): 144 % of control

COC(=O)c1nnn(-c2ccc(C)c(C)c2)c1C(=O)c1ccccc1
survivor count (dose: 240.0 mg/kg/injection, schedule: Q01DX005 (ip), vehicle: saline with Tween-80): 6 of 6

CCC1C[N+]2=C(c3cc(OC)c(OC)cc3CC2)c2c1cc1n2CCc2cc(OC)c(OC)cc2-1 (stereo not given)
survivor count (dose: 12.5 mg/kg/injection, schedule: Q01DX005 (ip), vehicle: saline with Tween-80): 1 of 6 | survivor count [1]: 0 of 6 | survivor count [2]: 0 of 6

CC(=O)c1c(Br)c2c3ccccc3c3ccccc3n2c1C
survivor count (dose: 60.0 mg/kg/injection, schedule: Q01DX005 (ip), vehicle: saline with Tween-80): 6 of 6 | survivor count (dose: 120.0 mg/kg/injection, schedule: Q01DX005 (ip), vehicle: saline with Tween-80): 6 of 6

C=CCN=C(NC#N)SC
survivor count (dose: 200.0 mg/kg/injection, schedule: Q01DX009 (ip), vehicle: Klucel (hydroxypropylcellulose) (HPC)): 5 of 6

CC[C@@]1(O)C(=O)OCc2c1cc1n(c2=O)Cc2cc3ccccc3nc2-1
T/C (dose: 0.39 mg/kg/injection, schedule: Q04DX003 (ip), vehicle: other): 128 % of control | T/C (dose: 0.5 mg/kg/injection, schedule: Q04DX003 (ip), vehicle: other): 129 % of control | T/C (dose: 0.75 mg/kg/injection, schedule: Q01DX005 (ip), vehicle: saline with Tween-80): 137 (2×) and 141 % of control | T/C (dose: 1.0 mg/kg/injection, schedule: Q04DX003 (ip), vehicle: other, evaluated on day 35): 126 % of control | T/C (dose: 1.0 mg/kg/injection, schedule: Q04DX003 (ip), vehicle: other, evaluated on day 40): 138 % of control | T/C (dose: 2.0 mg/kg/injection, schedule: Q04DX003 (ip), vehicle: other): 127 % of control | survivor count (dose: 2.5 mg/kg/injection, schedule: Q04DX003 (ip), vehicle: saline with Tween-80): 6 of 6 | survivor count (dose: 3.75 mg/kg/injection, schedule: Q04DX003 (ip), vehicle: saline with Tween-80): 4 of 6 | survivor count (dose: 5.0 mg/kg/injection, schedule: Q04DX003 (ip), vehicle: saline with Tween-80): 6 of 6 | T/C [3]: 88, 199, 213 % of control | survivor count [3]: 6 of 6 | survivor count (dose: 6.25 mg/kg/injection, schedule: Q04DX003 (ip), vehicle: other): 5 of 6 | T/C (dose: 6.7 mg/kg/injection, schedule: Q04DX002 (ip), vehicle: saline with Tween-80, evaluated on day 45): 169, 180, 195, 203, 220 % of control | T/C (dose: 6.7 mg/kg/injection, schedule: Q04DX002 (ip), vehicle: saline with Tween-80, evaluated on day 47): 192 and 227 % of control | T/C [4]: 128 % of control | survivor count [4]: 6 of 6 | survivor count (dose: 10.0 mg/kg/injection, schedule: Q01DX005 (ip), vehicle: saline with Tween-80): 6 of 6 | T/C (dose: 10.0 mg/kg/injection, schedule: Q04DX002 (ip), vehicle: saline with Tween-80, evaluated on day 45): 86, 180, 187, 205, 215 % of control | T/C (dose: 10.0 mg/kg/injection, schedule: Q04DX002 (ip), vehicle: saline with Tween-80, evaluated on day 47): 217, 241, 247 % of control | survivor count (dose: 10.0 mg/kg/injection, schedule: Q04DX003 (ip), vehicle: saline with Tween-80): 6 of 6 | survivor count (dose: 12.0 mg/kg/injection, schedule: Q01DX005 (ip), vehicle: saline with Tween-80): 10 of 10 | survivor count (dose: 12.5 mg/kg/injection, schedule: Q04DX003 (ip), vehicle: other): 5 of 6 | T/C (dose: 15.0 mg/kg/injection, schedule: Q04DX002 (ip), vehicle: saline with Tween-80, evaluated on day 45): 203, 214, 235, 424 % of control | T/C (dose: 15.0 mg/kg/injection, schedule: Q04DX002 (ip), vehicle: saline with Tween-80, evaluated on day 47): 219, 277, 371 % of control | survivor count (dose: 15.0 mg/kg/injection, schedule: Q04DX002 (ip), vehicle: saline with Tween-80): 10 of 10 | survivor count (dose: 16.67 mg/kg/injection, schedule: Q01DX005 (ip), vehicle: saline with Tween-80): 5 of 6 | survivor count (dose: 22.5 mg/kg/injection, schedule: Q04DX002 (ip), vehicle: saline with Tween-80): 9 of 10
